Where “and” joins values, the source holds several entries; their conditions need not be identical. Identical values can stand only once. About 7,500 (2.1%) of roughly 360,000 compounds were called active. The shares of active, inactive and inconclusive entries below differ from those in the screen. Calls follow the shape of the dose curve; as a rule, active = well fitted inhibition curve with a large enough effect; inconclusive = small, poorly fitted or top-dose-only effect, or effect the other way; inactive = flat fitted curve, though single readings scatter. Potencies of inconclusive entries are doubtful fits and often do not repeat.
Experiment: Nrf2 qHTS screen for inhibitors; also: nearly all actives have a fitted effect of over 60% in size
Details: A549 ARE-Fluc reporter, luciferase luminescence, 18-24 h; series mostly up to 46 µM
Procedure, shortened: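 Concentration-response testing used A549 ARE_Fluc cells at 5000 cells/well. Following an 18-24 h compound incubation, viability was read by fluorescence (Ex 405/Em 525) and luciferase output by luminescence.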
Potency is read from the fitted curve at half-maximal effect.

**Q.** With `CC(C)(C)C(=O)Cn1c(=O)n(CCCCCC(=O)NCc2ccccc2Cl)c(=O)c2sccc21` as the compound, how does the Potency read?
**A.** The Potency was inconclusive: 11.6 µM [falling, partial curve, poor fit].

**Q.** Which Potency does the source give for `COc1cc(OC)cc(-c2nc3nc(C)c(CCC(=O)Nc4ccccc4)c(C)n3n2)c1` here?
**A.** Its Potency is “inactive”.

**Q.** Which Potency does the source give for `Cc1ccc2cc(CN(CC3CCCO3)C(=S)Nc3ccccc3)c(=O)[nH]c2c1C` (stereo unspecified) here?
**A.** Its Potency is inconclusive: 4.11 µM [activator, full curve].

**Q.** Which Potency does the source give for `Cc1ccnc(SC2CC(=O)N(c3ccc([N+](=O)[O-])cc3)C2=O)n1` (stereo unspecified) here?
**A.** Its Potency is “inactive”.

**Q.** Which Potency does the source give for `O=C(CSc1nnc(C2CCCCC2)o1)N1CCCCC1` here?
**A.** The Potency was inconclusive: 29.1 µM [activator, single point].

**Q.** With `O=C(NNC(=O)c1c(F)cccc1F)c1ccccc1-n1cccc1` as the compound, how does the Potency read?
**A.** The Potency was inconclusive: 5.17 µM [falling, partial curve, poor fit].

**Q.** For `CC1Sc2ccc(S(=O)(=O)N3CCC(C(=O)Nc4cccc(Cl)c4)CC3)cc2NC1=O` (stereo unspecified), which Potency is on record?
**A.** The Potency was inconclusive: 29.1 µM [falling, single point].

**Q.** Which Potency does the source give for `Cc1ccc(N(Cc2cc3ccccc3[nH]c2=O)C(=O)c2cccs2)cc1C` here?
**A.** Its Potency is inconclusive: 29.1 µM [falling, single point].

**Q.** For `CC(=O)c1ccc(N2CCN(C(=O)Nc3cn(CC(C)C)c(=O)c4ccccc34)CC2)cc1`, which Potency is on record?
**A.** Its Potency is inconclusive: 8.2 µM [activator, partial curve].

**Q.** For `O=C(Cc1ccccc1)Nc1nc2ccccc2s1`, which Potency is on record?
**A.** The Potency was inconclusive: 9.2 µM [activator, partial curve, poor fit].

**Q.** Which Potency does the source give for `CC(=O)c1ccc(C(=O)Nc2nnc(-c3ccc(Cl)cc3)o2)cc1` here?
**A.** The Potency was inconclusive: 29.1 µM [falling, single point].

**Q.** With `COc1ccc(S(=O)(=O)N2CCN(c3nc(-c4cccs4)nc4ccccc34)CC2)cc1` as the compound, how does the Potency read?
**A.** The Potency was inconclusive: 32.6 µM [falling, partial curve, poor fit] and inconclusive: 18.4 µM [falling, partial curve, poor fit].

**Q.** With `Cc1cccc(-c2nc(C#N)c(NC3CCCCC3)o2)c1` as the compound, how does the Potency read?
**A.** Its Potency is inconclusive: 1.84 µM [activator, full curve].

**Q.** With `CSc1ccccc1NC(=O)Nc1cccc(Cl)c1` as the compound, how does the Potency read?
**A.** The Potency was inconclusive: 14.6 µM [falling, partial curve, poor fit].

**Q.** For `CC(=O)c1ccc(NC(=O)COc2ccccc2-c2nc(C(C)C)no2)cc1`, which Potency is on record?
**A.** The Potency was inconclusive: 25.9 µM [falling, single point].

**Q.** For `CCOC(=O)C1CCN(S(=O)(=O)c2cc(-c3cc(C)no3)ccc2OC)CC1`, which Potency is on record?
**A.** Its Potency is inconclusive: 11.6 µM [activator, partial curve, poor fit].

**Q.** With `OCc1cn(-c2ccccc2)nc1-c1ccc2c(c1)OCCO2` as the compound, how does the Potency read?
**A.** The Potency was inconclusive: 1.46 µM [activator, full curve].

**Q.** For `CN(c1cccc(NC(=O)Cc2ccccc2)c1)S(C)(=O)=O`, which Potency is on record?
**A.** Its Potency is inconclusive: 2.31 µM [falling, partial curve, poor fit].

**Q.** With `O=C(c1ccc(Cl)cc1)N1CCC(c2nc(-c3cccs3)no2)CC1` as the compound, how does the Potency read?
**A.** The Potency was inconclusive: 29.1 µM [falling, single point].

**Q.** For `O=C(CCS(=O)(=O)c1ccccc1)N1CCN(c2ccccc2)CC1`, which Potency is on record?
**A.** Its Potency is inconclusive: 3.26 µM [activator, partial curve].

**Q.** With `Cc1ccc(NC(=S)NCc2ccc(Cl)cc2)c(C)c1` as the compound, how does the Potency read?
**A.** The Potency was inconclusive: 29.1 µM [falling, single point].

**Q.** Which Potency does the source give for `CCCN(CCC)C(=O)C1CCN(c2ccc(S(=O)(=O)N3CCOCC3)cc2[N+](=O)[O-])CC1` here?
**A.** Its Potency is inconclusive: 14.6 µM [falling, partial curve, poor fit].

**Q.** For `Cc1ccccc1OCC(=O)Nc1ccc2[nH]c(=O)sc2c1`, which Potency is on record?
**A.** Its Potency is inconclusive: 11.6 µM [falling, partial curve, poor fit].

**Q.** Which Potency does the source give for `Cc1c(C(=O)N2CCCCC2)c(S(=O)(=O)N2CCN(c3ccc(F)cc3)CC2)c(C)n1C` here?
**A.** Its Potency is inconclusive: 20.6 µM [falling, single point].

**Q.** Which Potency does the source give for `CCOC(=O)N1CCC(NC(=O)c2ccc3c(c2)N(Cc2ccc(F)cc2)C(=O)c2ccccc2S3=O)CC1` (stereo unspecified) here?
**A.** Its Potency is “inactive”.

**Q.** With `COc1ccc(CCNC(=O)c2nc(SCc3ccc(F)cc3)ncc2Cl)cc1OC` as the compound, how does the Potency read?
**A.** The Potency was inconclusive: 18.4 µM [falling, single point].

**Q.** Which Potency does the source give for `CS(=O)(=O)Nc1ccc(Cc2ccc(NS(C)(=O)=O)cc2)cc1` here?
**A.** The Potency was inconclusive: 23.1 µM [falling, single point].

**Q.** For `Cc1cccnc1Nc1nc(-c2ccccn2)cs1`, which Potency is on record?
**A.** Its Potency is inconclusive: 8.2 µM [falling, partial curve, poor fit].

**Q.** Which Potency does the source give for `COc1cc(COc2ccc3c(C)c(Cc4ccccc4)c(=O)oc3c2)cc(OC)c1OC` here?
**A.** Its Potency is inconclusive: 29.1 µM [falling, single point].

**Q.** Which Potency does the source give for `COc1ccc(C(=O)C(C)OC(=O)c2cccc(S(=O)(=O)Nc3c(C)n(C)n(-c4ccccc4)c3=O)c2)cc1` (stereo unspecified) here?
**A.** The Potency was inconclusive: 4.11 µM [activator, full curve].

**Q.** For `Cc1cc(/C=C2\SC(=S)N(Cc3ccco3)C2=O)c(C)n1-c1ccccc1`, which Potency is on record?
**A.** The Potency was inconclusive: 6.51 µM [activator, partial curve].

**Q.** Which Potency does the source give for `C=C1C(=O)C23CCC4C(C)(C(=O)OC)CCCC4(C)C2CCC1(O)C3` (stereo unspecified) here?
**A.** The Potency was inconclusive: 16.4 µM [falling, single point].

**Q.** For `O=C(N/N=C\c1cccc(Cl)c1)c1n[nH]c2c1CCCC2`, which Potency is on record?
**A.** The Potency was inconclusive: 13 µM [activator, partial curve].

**Q.** With `Cc1ccc(CCNC(=O)C(C)n2nc(C)c3c(C)n(-c4ccc(C)cc4)nc3c2=O)cc1` (stereo unspecified) as the compound, how does the Potency read?
**A.** The Potency was inconclusive: 18.4 µM [falling, single point].

**Q.** Which Potency does the source give for `CCCCCCC(=O)Nc1cc2nc3c(nc2cc1C)c(=O)n(C)c(=O)n3C` here?
**A.** The Potency was inconclusive: 0.259 µM [activator, full curve, poor fit].

**Q.** Which Potency does the source give for `Nc1ncc(-c2ccccc2)n1CC1CCCO1` (stereo unspecified) here?
**A.** Its Potency is active: 16.4 µM.

**Q.** Which Potency does the source give for `Cc1c(C)n(C)c2ccc(C(=O)NCCCN3CCN(c4ccccc4F)CC3)cc12` here?
**A.** The Potency was inconclusive: 29.1 µM [activator, single point].

**Q.** For `CCOc1ccccc1N(CC(=O)Nc1cc(OC)ccc1OC)S(=O)(=O)c1ccccc1`, which Potency is on record?
**A.** The Potency was inconclusive: 0.651 µM [falling, full curve, poor fit].

**Q.** With `COc1ccc(OCc2cc(C(=O)NC(C)c3csc(C)n3)no2)c(Cl)c1` (stereo unspecified) as the compound, how does the Potency read?
**A.** Its Potency is inconclusive: 4.11 µM [activator, full curve].

**Q.** For `Cc1ccc(S(=O)(=O)CC(=O)Nc2nc(C(C)(C)C)cs2)cc1`, which Potency is on record?
**A.** Its Potency is inconclusive: 29.1 µM [falling, single point].

**Q.** Which Potency does the source give for `COc1cc(/C=N/NC(=O)c2cc(-c3cccc(OC(C)C)c3)nc3ccccc23)ccc1O` here?
**A.** The Potency was inconclusive: 2.59 µM [activator, full curve].

**Q.** With `CCN1CCN(Cc2nc3cc(NC(=O)c4cccc([N+](=O)[O-])c4)ccc3n2CC)CC1` as the compound, how does the Potency read?
**A.** Its Potency is “inactive”.

**Q.** For `Cc1cccc(Nc2ncnc3ccccc23)c1`, which Potency is on record?
**A.** Its Potency is inconclusive: 20.6 µM [falling, partial curve].

**Q.** Which Potency does the source give for `COc1cccc(CN(C)CC(=O)NCc2ccc(C)cc2)c1` here?
**A.** Its Potency is inconclusive: 20.6 µM [falling, single point].

**Q.** Which Potency does the source give for `O=C(OCc1nnc(-c2ccc(Cl)cc2)o1)c1ccc(O)cc1` here?
**A.** The Potency was inconclusive: 23.1 µM [activator, single point].

**Q.** Which Potency does the source give for `Cc1ccc(NC(=O)COc2coc(CN3c4ccccc4CC3C)cc2=O)c(C)c1` (stereo unspecified) here?
**A.** Its Potency is inconclusive: 25.9 µM [falling, single point].

**Q.** For `CC(CNc1nc2ccccc2c2nc(-c3ccccc3)nn12)c1ccccc1` (stereo unspecified), which Potency is on record?
**A.** Its Potency is inconclusive: 1.46 µM [activator, full curve, poor fit].

**Q.** For `CC1(C)N=C(N)N=C(N)N1c1cccc(C#N)c1`, which Potency is on record?
**A.** The Potency was inconclusive: 13 µM [falling, partial curve].

**Q.** For `COc1ccc(C2CC(c3ccccc3)=NN2c2ccc(N)cc2)cc1` (stereo unspecified), which Potency is on record?
**A.** The Potency was inconclusive: 23.1 µM [falling, partial curve, poor fit].

**Q.** For `Cc1ccc(COn2c(-c3ccc(Cl)cc3Cl)nc3ncccc32)cc1`, which Potency is on record?
**A.** The Potency was inconclusive: 4.61 µM [activator, partial curve, poor fit].

**Q.** Which Potency does the source give for `NC(=S)n1[nH]c(-c2ccc([N+](=O)[O-])cc2)c(N=Nc2ccc(O)cc2)c1=O` here?
**A.** The Potency was inconclusive: 6.51 µM [falling, single point].

**Q.** With `CCSc1nc2sc3c(c2c2[n+]1CC(CBr)O2)CCCC3` (stereo unspecified) as the compound, how does the Potency read?
**A.** The Potency was “inactive”.

**Q.** Which Potency does the source give for `Cc1nn(-c2ccccn2)c2c1C(c1ccsc1)C1=C(CCCC1=O)N2` (stereo unspecified) here?
**A.** Its Potency is inconclusive: 20.6 µM [falling, partial curve].

**Q.** For `CC1(C)OC(=O)N(Cc2ccco2)C1(C)O` (stereo unspecified), which Potency is on record?
**A.** The Potency was inconclusive: 25.9 µM [activator, partial curve, poor fit].

**Q.** Which Potency does the source give for `CCCS(=O)(=O)c1nc(S(=O)(=O)c2ccc(C)cc2)c(NCC(C)C)s1` here?
**A.** The Potency was “inactive”.

**Q.** For `CCOC(=O)N1CCC(NC(=O)C2CCCN(Cc3nc(-c4ccc(CC)cc4)oc3C)C2)CC1` (stereo unspecified), which Potency is on record?
**A.** The Potency was inconclusive: 11.6 µM [falling, partial curve, poor fit].

**Q.** With `Cc1ccc(CCNC(=O)c2oc(=O)c3ccccc3c2-c2ccc(C)cc2)cc1` as the compound, how does the Potency read?
**A.** The Potency was inconclusive: 29.1 µM [falling, single point].

**Q.** Which Potency does the source give for `C=CCN=C(NC#N)SCC(=O)c1cccc(OC)c1` here?
**A.** The Potency was “inactive”.

**Q.** For `CN(C)/C=C/C(=O)c1nnn(C2CCCCC2)c1NC1CCCCC1`, which Potency is on record?
**A.** The Potency was inconclusive: 16.4 µM [falling, partial curve, poor fit].

**Q.** For `COc1ccccc1NC(=O)C1CCCN(S(=O)(=O)c2ccc3c(c2)CC(C)N3C(C)=O)C1` (stereo unspecified), which Potency is on record?
**A.** The Potency was inconclusive: 5.8 µM [falling, full curve].

**Q.** For `CC(=O)c1cccc(NC(=O)CC(C)n2ccnc2)c1` (stereo unspecified), which Potency is on record?
**A.** The Potency was inconclusive: 20.6 µM [activator, partial curve, poor fit].
